The source of these data is publication doi:10.1101/2019.12.19.882779.

Protein sequences, listed by entry. Tags and fused reporters are not part of them.
UniProt P30052: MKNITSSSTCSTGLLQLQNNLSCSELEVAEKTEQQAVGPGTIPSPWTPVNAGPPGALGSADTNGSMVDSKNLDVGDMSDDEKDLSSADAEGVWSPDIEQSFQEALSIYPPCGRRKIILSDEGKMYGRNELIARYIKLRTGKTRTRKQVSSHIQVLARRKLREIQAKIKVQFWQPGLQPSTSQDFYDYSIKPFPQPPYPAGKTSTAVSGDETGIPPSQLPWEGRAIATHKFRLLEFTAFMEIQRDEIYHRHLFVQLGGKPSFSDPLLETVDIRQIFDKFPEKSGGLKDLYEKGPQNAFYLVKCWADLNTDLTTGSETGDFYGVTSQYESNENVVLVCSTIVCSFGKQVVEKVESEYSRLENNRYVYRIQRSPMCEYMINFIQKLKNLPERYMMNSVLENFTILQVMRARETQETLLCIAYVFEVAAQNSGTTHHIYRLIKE
UniProt P42003: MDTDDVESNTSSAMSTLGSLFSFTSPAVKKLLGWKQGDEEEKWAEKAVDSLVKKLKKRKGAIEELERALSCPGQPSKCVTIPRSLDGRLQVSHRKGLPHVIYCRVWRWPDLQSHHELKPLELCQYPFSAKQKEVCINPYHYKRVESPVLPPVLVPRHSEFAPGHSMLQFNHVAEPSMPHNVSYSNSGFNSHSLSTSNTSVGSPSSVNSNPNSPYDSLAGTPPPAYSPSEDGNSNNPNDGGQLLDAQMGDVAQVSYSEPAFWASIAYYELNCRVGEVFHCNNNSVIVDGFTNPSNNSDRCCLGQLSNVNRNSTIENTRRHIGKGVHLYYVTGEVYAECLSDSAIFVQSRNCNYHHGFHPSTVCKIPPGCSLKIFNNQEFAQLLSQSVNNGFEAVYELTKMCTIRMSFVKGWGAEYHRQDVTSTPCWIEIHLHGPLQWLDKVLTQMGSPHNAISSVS

These are yes or no findings as the source states them, for the method shown. Binding seen in cells or lysates may run through a third protein. Some results given as binding are weak or reduced against the parent protein; the word gives no strength. Tags and fused reporters may be left off the sequences shown.

The target of the assay is T1, Flag-Firefly luciferase-Yki2 (Yorkie isoform with two WW domains, includes exon 3) (Drosophila) (UniProt Q45VV3).
T1 sequence: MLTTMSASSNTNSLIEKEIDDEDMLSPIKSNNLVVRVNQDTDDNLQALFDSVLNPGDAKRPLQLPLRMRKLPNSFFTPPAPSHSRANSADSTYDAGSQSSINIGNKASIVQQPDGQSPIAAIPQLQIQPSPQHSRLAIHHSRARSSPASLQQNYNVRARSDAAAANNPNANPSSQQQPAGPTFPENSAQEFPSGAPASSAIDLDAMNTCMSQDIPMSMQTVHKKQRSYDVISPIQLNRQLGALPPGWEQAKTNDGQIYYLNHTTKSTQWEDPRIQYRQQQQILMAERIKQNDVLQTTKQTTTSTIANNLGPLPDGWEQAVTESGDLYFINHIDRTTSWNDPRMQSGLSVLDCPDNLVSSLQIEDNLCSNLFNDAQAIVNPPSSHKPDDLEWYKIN
Description: co-IP.

Take “Scalloped fused to Renilla luciferase (from UniProt P30052 1-440)”: the binding result was “binds”.

“MAD fused to Renilla luciferase (from UniProt P42003 1-455)”: the binding result is given as “binds”.

B1: Hth fused to Renilla luciferase (protein, UniProt O46339 1-487)
chain: MAQPRYDDGLHGYGMDSGAAAAAMYDPHAGHRPPGLQGLPSHHSPHMTHAAAAAATVGMHGYHSGAGGHGTPSHVSPVGNHLMGAIPEVHKRDKDAIYEHPLFPLLALIFEKCELATCTPREPGVQGGDVCSSESFNEDIAMFSKQIRSQKPYYTADPEVDSLMVQAIQVLRFHLLELEKVHELCDNFCHRYISCLKGKMPIDLVIDERDTTKPPELGSANGEGRSNADSTSHTDGASTPDVRPPSSSLSYGGAMNDDARSPGAGSTPGPLSQQPPALDTSDPDGKFLSSLNPSELTYDGRWCRREWSSPADARNADASRRLYSSVFLGSPDNFGTSASGDASNASIGSGEGTGEEDDDASGKKNQKKRGIFPKVATNILRAWLFQHLTHPYPSEDQKKQLAQDTGLTILQVNNWFINARRRIVQPMIDQSNRAVYTPHPGPSGYGHDAMGYMMDSQAHMMHRPPGDPGFHQGYPHYPPAEYYGQHL
For the molecule B1, the binding entry is listed as “binds”.

B2: GAF fused to Renilla luciferase (protein, UniProt Q08605 1-582)
chain: MSLPMNSLYSLTWGDYGTSLVSAIQLLRCHGDLVDCTLAAGGRSFPAHKIVLCAASPFLLDLLKNTPCKHPVVMLAGVNANDLEALLEFVYRGEVSVDHAQLPSLLQAAQCLNIQGLAPQTVTKDDYTTHSIQLQHMIPQHHDQDQLIATIATAPQQTVHAQVVEDIHHQGQILQATTQTNAAGQQQTIVTTDAAKHDQAVIQAFLPARKRKPRVKKMSPTAPKISKVEGMDTIMGTPTSSHGSGSVQQVLGENGAEGQLLSSTPIIKSEGQKVETIVTMDPNNMIPVTSANAATGEITPAQGATGSSGGNTSGVLSTPKAKRAKHPPGTEKPRSRSQSEQPATCPICYAVIRQSRNLRRHLELRHFAKPGVKKEKKTTSGKKSSSGSSGSGSGALSSSGSVPQVQTVQSLHTLQGVQVKKDPDAQQQQQQQQQQQQQQQQQAMTVSGATGGQVQQQVQQVQQQVQQQQQQQQQQQQQLQHHQIIDSSGNITTATTSAQAAAAAQQQAAGQQQQLVAQSDGSESGAPLSIAQVQTLQGHQIIGNLNQVNITDFQQQQPQQQQQQQQQQQQQQQQQQQTQQTL
Turning to B2, the binding entry is on record as “binds”.

B3: Warts fused to Renilla luciferase (protein, UniProt Q9VA38 1-1105)
chain: MHPAGEKRGGRPNDKYTAEALESIKQDLTRFEVQNNHRNNQNYTPLRYTATNGRNDALTPDYHHAKQPMEPPPSASPAPDVVIPPPPAIVGQPGAGSISVSGVGVGVVGVANGRVPKMMTALMPNKLIRKPSIERDTASSHYLRCSPALDSGAGSSRSDSPHSHHTHQPSSRTVGNPGGNGGFSPSPSGFSEVAPPAPPPRNPTACSAATPPPPVPPTSQAYVKRRSPALNNRPPAIAPPTQRGNSPVITQNGLKNPQQQLTQQLKSLNLYPGGGSGAVVEPPPPYLIQGGAGGAAPPPPPPSYTASMQSRQSPTQSQQSDYRKSPSSGIYSATSAGSPSPITVSLPPAPLAKPQPRVYQARSQQPIIMQSVKSTQVQKPVLQTAVAPQSPSSASASNSPVHVLAAPPSYPQKSAAVVQQQQQAAAAAHQQQHQHQQSKPPTPTTPPLVGLNSKPNCLEPPSYAKSMQAKAATVVQQQQQQQQQQQQVQQQQVQQQQQQQQQQLQALRVLQAQAQRERDQRERDQRERERDQQKLANGNPGRQMLPPPPYQSNNNNNSEIKPPSCNNNNIQISNSNLATTPPIPPAKYNNNSSNTGANSSGGSNGSTGTTASSSTSCKKIKHASPIPERKKISKEKEEERKEFRIRQYSPQAFKFFMEQHIENVIKSYRQRTYRKNQLEKEMHKVGLPDQTQIEMRKMLNQKESNYIRLKRAKMDKSMFVKLKPIGVGAFGEVTLVSKIDTSNHLYAMKTLRKADVLKRNQVAHVKAERDILAEADNNWVVKLYYSFQDKDNLYFVMDYIPGGDLMSLLIKLGIFEEELARFYIAEVTCAVDSVHKMGFIHRDIKPDNILIDRDGHIKLTDFGLCTGFRWTHNSKYYQENGNHSRQDSMEPWEEYSENGPKPTVLERRRMRDHQRVLAHSLVGTPNYIAPEVLERSGYTQLCDYWSVGVILYEMLVGQPPFLANSPLETQQKVINWEKTLHIPPQAELSREATDLIRRLCASADKRLGKSVDEVKSHDFFKGIDFADMRKQKAPYIPEIKHPTDTSNFDPVDPEKLRSNDSTMSSGDDVDQNDRTFHGFFEFTFRRFFDDKQPPDMTDDQAPVYV
As for B3, the binding entry is “binds”.

B4: Ex fused to Renilla luciferase (protein, UniProt Q07436 1-1427)
chain: MRAFCTVSAPLEVCASSAEQLSPGSRFLALRLLGQQQPKTLYFLVDAKSRVREVYTQTCLHFATQGMLDTELFGLAVLIDGEYMFADPESKLSKYGPKSWRSSHTHGLDANGRPLLELHFRVQFYIESPFMLKDETSRHNYYLQLRHNILQRDLPREQAEQALVFLAGLALQADLGDAPPGTSNSKDDSGEETSASPSNGGRGLSATTTLPKISKRANERMLRLSTYVASTSKRETIPLPPSLPPNGADYYRIEDYLPSGLHTPWARSAMRACHREHLGMATAEAELLYIQQACSLHETINAHTYRMRLAKSEQGSGSAWFVVYAKGIKILGGESTNSSSNPETTTFLWPNITKLSFERKKFEIRSGESRITLYAASDEKNKLLLTLCKDTHQWSMKLAARLKEVSKREEEEAAESQRLHASYACSRSLLLPYKSKNEQRISVISSTSSNTTSGIVSDRVHSEDELEIMINTPPAPLAAPSTESLALAHLLDRPSVSRQTSSVGQMSLKDLEEQLAALSVRPQDASSNGATIVTNSSVQRNSMGTTANDSSTATDSPSSQHNIGSQCSSTCSTVVVTSPVNGAGASSSGAPIPVHSTSSSLELGFSHTAQNSALSETSPDDFLSTSAREETESVSGASGVYTLAHGAPPTETSGVYTMHSSELTGQSSEIAESEKSSHYGMFQPQKLEETHVQHSDSVDGKKKEDFRPRSDSNVSTGSSFRGDGSDPTDNKHSLLSAEELTNLIVGRGTYPSRKTVSSSLHSDCDYVTLPLGDQGEEEVDQPPAPPPPYSARHEKTGLCGPPIAKPIPKPIAVVAPKPDSPPCSPPVPPAPIPAPPPAIRRRDPPPYSISSKPRPTSLISVSSSAHPAPSAAGSMSSLKSEEVTARFITTRPQISILKAHTSLIPDGAKPSYAAPHHCSSVASSNGSVCSHQLSQQSLHNSNYAGGSQASLHHHHVPSHHRHSGSAAIGIVPYGLHKSTASLHHQQSCVLLPVIKPRQFLAPPPPSLPRQPPPPPPPNHPHLASHLYEREMARKQLELYQQQLYSDVDYVIYPIQDPAVSQQEYLDAKQGSLLAAMAQAAPPPPHHPYLAMQVSPAIYRSTPYLPLTLSTHSRYASTQNLSDTYVQLPGPGYSPLYSPSMASLCSSYEPPPPPPLHPAALAAAAAAGAGSSSSSMFARSRSDDNILNSLDLLPKGKRLPPPPPPPYVNRRLKKPPMPAPSEKPPPIPSKPIPSRMSPIPPRKPPTLNPHHANSPLTKTSSGAQWAGERPRPDLGLGLGLNRGNNSILAQLQASMVAQSHAQAQAQALDIALLREKSKHLDLPLISALCNDRSLLKQTKVVINPKTGQEMPTSSAQPSGATTNGVANSSAGAGTLSKARKGSTVSHRHPQDKLPPLPVQQLAEANNYVIDPAVMMKQQQQQQQHNKTS
Turning to B4, the binding entry is “binds”.

B5: Hippo fused to Renilla luciferase (protein, UniProt Q8T0S6 1-669)
chain: MSEPEVTSVVDMKSPNISSSCSFFKLKKLSEESLLQPPEKVFDIMYKLGEGSYGSVYKAVHKESSSIVAIKLVPVESDLHEIIKEISIMQQCDSPYVVRYYGSYFKQYDLWICMEYCGAGSVSDIMRLRKKTLTEDEIATILSDTLQGLVYLHLRRKIHRDIKAANILLNTEGYAKLADFGVAGQLTDTMAKRNTVIGTPFWMAPEVIEEIGYDCVADIWSLGITALEMAEGKPPYGEIHPMRAIFMIPQKPPPSFREPDRWSTEFIDFVSKCLVKEPDDRATATELLEHEFIRNAKHRSILKPMLEETCAIREQQRANRSFGGVLAASQAKSLATQENGMQQHITDNAFMEDPGTLVPEKFGEYQQSSASDATMIAHAEQGVDEGTLGPGGLRNLSKAAAPAAASSAASPLDMPAVDSGTMVELESNLGTMVINSDSDDSTTAKNNDDQKPRNRYRPQFLEHFDRKNAGDGRGDEKPIATEYSPAAAEQQQQQQQQQQQQQQDEQHLASGANDLNNWEHNMEMQFQQISAINQYGLQQHQQQQQVLMAYPLMNEQLIALNNQPNLLLSNAAPMGQQGIPAAAPAQPPPAYQNQHMHTQSHAYVEGEFEFLKFLTFDDLNQRLCNIDHEMELEIEQLNKKYNAKRQPIVDAMNAKRKRQQNINNNLIKI
On to B5, for which the binding entry is reported as “binds”.
